# Test results published in the supplement of paper PMC6411743.
# The chains behind the UniProt entries cited, without tags or fusion partners. Where a name states a change or a piece, a line headed by the entry shows the natural chain unless it says otherwise.
# UniProt Q15025: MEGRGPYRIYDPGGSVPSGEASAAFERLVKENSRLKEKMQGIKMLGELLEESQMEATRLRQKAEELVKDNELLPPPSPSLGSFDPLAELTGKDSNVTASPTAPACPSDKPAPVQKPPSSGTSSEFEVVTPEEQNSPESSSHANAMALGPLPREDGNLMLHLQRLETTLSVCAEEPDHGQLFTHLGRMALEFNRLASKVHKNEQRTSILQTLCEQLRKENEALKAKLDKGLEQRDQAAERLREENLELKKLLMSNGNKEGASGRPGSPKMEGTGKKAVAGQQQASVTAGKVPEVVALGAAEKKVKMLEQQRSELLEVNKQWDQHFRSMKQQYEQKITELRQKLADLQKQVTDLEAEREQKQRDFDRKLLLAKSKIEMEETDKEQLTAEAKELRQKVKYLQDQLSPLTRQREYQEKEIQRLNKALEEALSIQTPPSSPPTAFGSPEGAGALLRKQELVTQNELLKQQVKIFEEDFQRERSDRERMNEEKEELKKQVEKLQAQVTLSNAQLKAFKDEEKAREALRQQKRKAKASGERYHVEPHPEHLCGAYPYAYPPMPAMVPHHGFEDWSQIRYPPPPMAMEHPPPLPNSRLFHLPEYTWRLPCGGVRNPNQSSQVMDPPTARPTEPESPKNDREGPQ
# UniProt Q12769: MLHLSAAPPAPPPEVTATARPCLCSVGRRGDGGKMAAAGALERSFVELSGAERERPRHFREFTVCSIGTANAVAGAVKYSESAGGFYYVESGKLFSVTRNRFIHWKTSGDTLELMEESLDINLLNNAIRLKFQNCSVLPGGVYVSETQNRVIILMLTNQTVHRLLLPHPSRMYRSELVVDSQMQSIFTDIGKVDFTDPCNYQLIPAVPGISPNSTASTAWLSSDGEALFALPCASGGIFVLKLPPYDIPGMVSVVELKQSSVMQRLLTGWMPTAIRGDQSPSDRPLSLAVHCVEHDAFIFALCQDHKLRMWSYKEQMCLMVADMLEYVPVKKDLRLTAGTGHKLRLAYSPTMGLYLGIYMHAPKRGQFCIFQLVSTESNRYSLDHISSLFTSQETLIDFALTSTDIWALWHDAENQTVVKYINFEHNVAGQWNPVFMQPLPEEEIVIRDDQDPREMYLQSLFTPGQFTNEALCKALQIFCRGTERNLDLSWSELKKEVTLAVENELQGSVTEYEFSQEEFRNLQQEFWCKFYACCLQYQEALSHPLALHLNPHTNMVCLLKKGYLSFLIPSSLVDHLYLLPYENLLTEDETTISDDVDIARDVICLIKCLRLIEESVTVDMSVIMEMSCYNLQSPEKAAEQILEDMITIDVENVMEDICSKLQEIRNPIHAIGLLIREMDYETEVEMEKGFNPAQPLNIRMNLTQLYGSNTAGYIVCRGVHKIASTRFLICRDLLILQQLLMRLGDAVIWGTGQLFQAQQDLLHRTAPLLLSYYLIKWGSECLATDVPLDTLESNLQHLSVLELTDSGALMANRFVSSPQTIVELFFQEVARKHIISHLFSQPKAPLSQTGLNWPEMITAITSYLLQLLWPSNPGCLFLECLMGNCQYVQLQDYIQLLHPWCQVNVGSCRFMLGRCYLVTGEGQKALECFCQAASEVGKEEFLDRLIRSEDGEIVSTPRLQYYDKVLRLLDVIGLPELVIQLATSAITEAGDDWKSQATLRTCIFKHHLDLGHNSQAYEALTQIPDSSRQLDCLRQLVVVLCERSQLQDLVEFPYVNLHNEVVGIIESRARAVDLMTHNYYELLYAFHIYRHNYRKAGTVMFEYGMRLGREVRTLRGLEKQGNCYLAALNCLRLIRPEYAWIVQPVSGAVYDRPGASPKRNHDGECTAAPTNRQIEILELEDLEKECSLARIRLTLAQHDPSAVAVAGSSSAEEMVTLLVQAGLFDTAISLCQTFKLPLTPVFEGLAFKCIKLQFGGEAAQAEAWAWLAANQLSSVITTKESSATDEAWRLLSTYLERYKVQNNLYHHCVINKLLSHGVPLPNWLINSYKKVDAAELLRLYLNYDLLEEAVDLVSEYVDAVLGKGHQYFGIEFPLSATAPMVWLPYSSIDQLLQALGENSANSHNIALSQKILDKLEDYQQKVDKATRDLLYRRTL
# UniProt Q14CB8: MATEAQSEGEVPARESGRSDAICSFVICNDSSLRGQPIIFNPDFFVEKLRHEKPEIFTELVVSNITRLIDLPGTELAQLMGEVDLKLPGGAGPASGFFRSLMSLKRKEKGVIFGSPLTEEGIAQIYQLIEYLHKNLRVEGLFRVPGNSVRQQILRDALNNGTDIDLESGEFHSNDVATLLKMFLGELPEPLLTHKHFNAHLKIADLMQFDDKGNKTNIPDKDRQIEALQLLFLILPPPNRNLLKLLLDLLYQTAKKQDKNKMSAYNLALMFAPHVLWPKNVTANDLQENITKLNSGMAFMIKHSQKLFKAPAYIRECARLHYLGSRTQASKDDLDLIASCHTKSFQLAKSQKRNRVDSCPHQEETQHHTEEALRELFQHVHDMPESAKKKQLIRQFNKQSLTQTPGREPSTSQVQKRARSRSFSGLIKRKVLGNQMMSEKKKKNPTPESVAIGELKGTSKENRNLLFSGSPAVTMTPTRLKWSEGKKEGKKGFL
# UniProt Q14152, whole entry: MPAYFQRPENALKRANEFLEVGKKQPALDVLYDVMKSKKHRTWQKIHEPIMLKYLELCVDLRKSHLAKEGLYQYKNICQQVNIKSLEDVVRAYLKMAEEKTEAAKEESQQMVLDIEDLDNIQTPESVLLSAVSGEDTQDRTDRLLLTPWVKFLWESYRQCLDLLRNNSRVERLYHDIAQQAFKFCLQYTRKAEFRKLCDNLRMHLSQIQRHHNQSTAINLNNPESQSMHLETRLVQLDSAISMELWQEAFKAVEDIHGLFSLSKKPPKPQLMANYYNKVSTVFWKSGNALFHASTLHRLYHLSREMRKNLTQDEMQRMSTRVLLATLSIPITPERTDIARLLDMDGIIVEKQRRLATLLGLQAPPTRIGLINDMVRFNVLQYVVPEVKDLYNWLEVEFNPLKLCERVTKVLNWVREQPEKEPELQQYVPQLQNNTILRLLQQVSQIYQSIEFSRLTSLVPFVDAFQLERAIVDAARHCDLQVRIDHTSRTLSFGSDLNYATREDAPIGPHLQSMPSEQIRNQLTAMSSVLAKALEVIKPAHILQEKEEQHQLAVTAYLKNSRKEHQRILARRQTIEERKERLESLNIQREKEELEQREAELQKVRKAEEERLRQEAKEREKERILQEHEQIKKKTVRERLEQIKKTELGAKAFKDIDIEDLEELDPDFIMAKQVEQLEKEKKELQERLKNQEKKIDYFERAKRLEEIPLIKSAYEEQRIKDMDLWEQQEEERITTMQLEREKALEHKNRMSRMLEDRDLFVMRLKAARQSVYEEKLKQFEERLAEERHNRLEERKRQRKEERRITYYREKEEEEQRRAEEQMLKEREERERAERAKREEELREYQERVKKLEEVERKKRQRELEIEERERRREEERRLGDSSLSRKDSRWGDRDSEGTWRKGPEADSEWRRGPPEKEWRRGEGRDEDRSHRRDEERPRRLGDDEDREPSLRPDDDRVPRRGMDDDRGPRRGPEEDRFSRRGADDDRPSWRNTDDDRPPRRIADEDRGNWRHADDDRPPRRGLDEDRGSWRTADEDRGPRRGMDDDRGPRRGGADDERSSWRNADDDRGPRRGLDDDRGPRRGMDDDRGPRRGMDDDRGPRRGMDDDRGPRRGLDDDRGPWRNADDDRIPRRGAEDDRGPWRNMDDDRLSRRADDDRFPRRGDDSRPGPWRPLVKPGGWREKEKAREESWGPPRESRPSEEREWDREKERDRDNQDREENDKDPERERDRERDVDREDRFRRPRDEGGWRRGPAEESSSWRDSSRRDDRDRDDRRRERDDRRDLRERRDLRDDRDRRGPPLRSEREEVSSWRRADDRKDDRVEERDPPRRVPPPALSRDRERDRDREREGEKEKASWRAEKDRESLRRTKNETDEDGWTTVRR
# UniProt Q13362, whole entry, looked up: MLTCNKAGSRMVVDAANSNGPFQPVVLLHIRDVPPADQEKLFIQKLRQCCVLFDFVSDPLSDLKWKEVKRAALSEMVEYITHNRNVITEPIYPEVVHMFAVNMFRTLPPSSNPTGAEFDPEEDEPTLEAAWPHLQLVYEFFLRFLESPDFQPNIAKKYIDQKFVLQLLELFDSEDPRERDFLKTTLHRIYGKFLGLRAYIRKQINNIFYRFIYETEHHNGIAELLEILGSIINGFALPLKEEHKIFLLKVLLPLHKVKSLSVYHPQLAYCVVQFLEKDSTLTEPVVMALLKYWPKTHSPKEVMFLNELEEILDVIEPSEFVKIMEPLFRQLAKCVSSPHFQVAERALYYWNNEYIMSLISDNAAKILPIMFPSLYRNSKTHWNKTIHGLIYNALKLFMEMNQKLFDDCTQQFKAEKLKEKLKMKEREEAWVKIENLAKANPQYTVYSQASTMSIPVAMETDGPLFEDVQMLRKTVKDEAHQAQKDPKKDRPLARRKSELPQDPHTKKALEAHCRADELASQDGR
# UniProt Q13472: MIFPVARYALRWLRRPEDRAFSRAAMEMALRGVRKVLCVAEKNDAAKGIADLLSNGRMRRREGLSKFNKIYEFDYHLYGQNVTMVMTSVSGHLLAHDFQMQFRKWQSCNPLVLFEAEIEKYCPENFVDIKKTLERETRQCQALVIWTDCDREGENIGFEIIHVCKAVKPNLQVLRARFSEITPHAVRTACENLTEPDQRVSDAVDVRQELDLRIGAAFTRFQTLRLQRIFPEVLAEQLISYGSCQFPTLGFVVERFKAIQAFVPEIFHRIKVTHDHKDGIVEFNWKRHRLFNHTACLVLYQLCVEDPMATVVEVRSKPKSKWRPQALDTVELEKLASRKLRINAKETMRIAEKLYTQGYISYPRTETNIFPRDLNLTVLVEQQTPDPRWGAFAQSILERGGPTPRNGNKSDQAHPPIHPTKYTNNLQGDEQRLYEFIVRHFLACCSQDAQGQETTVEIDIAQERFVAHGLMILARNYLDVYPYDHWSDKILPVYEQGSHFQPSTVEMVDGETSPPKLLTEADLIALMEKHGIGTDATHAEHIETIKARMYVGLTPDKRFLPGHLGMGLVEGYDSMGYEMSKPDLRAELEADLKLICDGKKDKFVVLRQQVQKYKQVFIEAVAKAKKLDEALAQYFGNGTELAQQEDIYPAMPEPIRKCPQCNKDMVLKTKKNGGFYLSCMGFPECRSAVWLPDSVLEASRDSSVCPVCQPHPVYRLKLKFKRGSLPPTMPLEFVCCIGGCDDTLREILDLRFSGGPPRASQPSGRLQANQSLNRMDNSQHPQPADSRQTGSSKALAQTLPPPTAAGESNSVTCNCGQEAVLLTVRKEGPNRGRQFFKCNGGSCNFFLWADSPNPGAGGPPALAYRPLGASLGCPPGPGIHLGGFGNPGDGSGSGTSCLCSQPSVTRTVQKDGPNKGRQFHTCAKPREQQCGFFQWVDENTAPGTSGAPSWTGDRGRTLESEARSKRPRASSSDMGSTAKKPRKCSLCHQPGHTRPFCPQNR
# UniProt Q13542: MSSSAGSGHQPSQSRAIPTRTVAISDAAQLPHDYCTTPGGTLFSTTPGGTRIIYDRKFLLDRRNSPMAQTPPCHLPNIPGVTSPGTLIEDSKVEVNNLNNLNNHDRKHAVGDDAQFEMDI
# UniProt Q13445: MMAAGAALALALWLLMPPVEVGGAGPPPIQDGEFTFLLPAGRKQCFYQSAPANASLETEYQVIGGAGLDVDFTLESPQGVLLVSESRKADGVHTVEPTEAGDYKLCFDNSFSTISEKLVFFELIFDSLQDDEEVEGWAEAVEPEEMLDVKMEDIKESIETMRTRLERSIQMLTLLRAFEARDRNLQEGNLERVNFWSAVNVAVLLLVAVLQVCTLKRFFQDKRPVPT
# UniProt Q15046, whole entry, looked up: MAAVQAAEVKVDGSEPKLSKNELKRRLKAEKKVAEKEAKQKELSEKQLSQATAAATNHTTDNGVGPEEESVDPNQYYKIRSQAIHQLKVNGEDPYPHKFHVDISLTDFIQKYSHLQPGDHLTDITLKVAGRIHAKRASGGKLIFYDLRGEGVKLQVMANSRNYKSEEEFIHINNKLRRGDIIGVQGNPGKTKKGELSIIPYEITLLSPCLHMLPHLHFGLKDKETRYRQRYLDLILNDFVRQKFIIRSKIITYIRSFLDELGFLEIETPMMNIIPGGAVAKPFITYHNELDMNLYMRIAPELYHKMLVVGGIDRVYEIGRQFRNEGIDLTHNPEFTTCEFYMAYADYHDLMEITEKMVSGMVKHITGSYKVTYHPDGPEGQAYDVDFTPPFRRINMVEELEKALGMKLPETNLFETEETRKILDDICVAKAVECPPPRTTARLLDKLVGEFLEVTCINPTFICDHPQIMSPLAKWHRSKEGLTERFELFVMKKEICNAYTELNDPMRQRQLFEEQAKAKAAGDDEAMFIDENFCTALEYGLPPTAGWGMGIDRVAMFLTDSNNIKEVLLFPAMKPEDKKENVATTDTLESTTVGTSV
# UniProt Q10589, whole entry: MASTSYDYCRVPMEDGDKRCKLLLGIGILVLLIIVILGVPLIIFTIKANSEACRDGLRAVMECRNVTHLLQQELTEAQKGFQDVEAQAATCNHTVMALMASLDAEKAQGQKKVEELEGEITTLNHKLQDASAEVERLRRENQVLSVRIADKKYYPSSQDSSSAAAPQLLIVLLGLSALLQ
# ± gives the standard deviation of the averaged measurements. Only a part is listed here, and it is no random draw.
# Compound: Nc1ncnc2c1ncn2[C@@H]1O[C@H](COP(=O)(O)OP(=O)(O)NP(=O)(O)O)[C@@H](O)[C@H]1O [adenylyl imidodiphosphate]
# Experiment: NP40-soluble protein abundance relative to vehicle (solubility fold change) (ratio); higher = more soluble protein in presence of AMP-PNP
# Conditions: concentration: 4mM
# Outline: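 Crude Jurkat lysate, prepared by Dounce homogenisation, was exposed to eight concentrations from 0.1 to 10 mM for 10 min at room temperature and then 3 min at 37 °C. Solubilisation used 0.8% NP40 with benzonase for 60 min at 4 °C, followed by ultracentrifugation and TMT labelling of the supernatant for LC-MS/MS. After vsn normalisation of intensities, each value is the fold change against the detergent-processed vehicle within each replicate, across three independent experiments.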
row,Target,NP40-soluble protein abundance
1,UniProt Q15025 and related entries,0.944 ± 0.061
2,UniProt Q12769 and related entries,0.9433 ± 0.006
3,EIF2B5 (UniProt Q13144),1.01 ± 0.053
4,UniProt Q14790 and related entries,0.976 ± 0.016
5,COTL1 (UniProt Q14019),0.943 ± 0.046
6,UniProt Q12933 and related entries,0.989 ± 0.032
7,URB2 (UniProt Q14146),0.988 ± 0.013
8,AHNAK (UniProt Q09666),1.04 ± 0.035
9,UniProt Q12974 and related entries,0.956 ± 0.027
10,PMPCA (UniProt Q10713),0.971 ± 0.028
11,UniProt Q14980 and related entries,0.961 ± 0.04
12,UniProt Q14CB8 and related entries,1.03 ± 0.043
13,RAB33A (UniProt Q14088),0.991 ± 0.025
14,EIF3A (UniProt Q14152),1.12 ± 0.087
15,SNX1 (UniProt Q13596),0.978 ± 0.032
16,IQGAP2 (UniProt Q13576),0.94 ± 0.051
17,EP300 (UniProt Q09472),1.04 ± 0.027
18,UniProt Q13362-2|Q13362-3|Q13362-4,0.989 ± 0.018

row,Target,NP40-soluble protein abundance
1,IK (UniProt Q13123),1.1 ± 0.031
2,UniProt Q15006,0.975 ± 0.044
3,SMC1A (UniProt Q14683),1.01 ± 0.015
4,UniProt Q13131 and related entries,1.051 ± 0.0089
5,UniProt Q13191 and related entries,1.016 ± 0.0079
6,LAPTM5 (UniProt Q13571),0.961 ± 0.027
7,UniProt Q13472 and related entries,0.982 ± 0.017
8,EIF4EBP2 (UniProt Q13542),1.06 ± 0.028
9,TMED1 (UniProt Q13445),0.991 ± 0.043
10,ITPR2 (UniProt Q14571),0.965 ± 0.05
11,UniProt Q13535 and related entries,1.01 ± 0.022
12,UniProt Q15084 and related entries,0.9386 ± 0.0066
13,LCP2 (UniProt Q13094),0.992 ± 0.034
14,DNAJC3 (UniProt Q13217),0.973 ± 0.011
15,BLMH (UniProt Q13867),0.915 ± 0.043
16,UniProt Q13243,1.17 ± 0.07
17,UniProt Q15046,0.914 ± 0.11
18,UniProt Q10589 and related entries,1.03 ± 0.025

# Same assay, conditions: concentration: 6mM
row,Target,NP40-soluble protein abundance
1,UniProt Q15025 and related entries,0.913 ± 0.056
2,UniProt Q12769 and related entries,0.9621 ± 0.0016
3,EIF2B5 (UniProt Q13144),0.997 ± 0.036
4,UniProt Q14790 and related entries,0.957 ± 0.044
5,COTL1 (UniProt Q14019),1.02 ± 0.049
6,UniProt Q12933 and related entries,0.969 ± 0.048
7,URB2 (UniProt Q14146),1.05 ± 0.018
8,AHNAK (UniProt Q09666),0.999 ± 0.023
9,UniProt Q12974 and related entries,0.996 ± 0.025
10,PMPCA (UniProt Q10713),0.938 ± 0.018
11,UniProt Q14980 and related entries,0.918 ± 0.016
12,UniProt Q14CB8 and related entries,1.03 ± 0.015
13,RAB33A (UniProt Q14088),0.974 ± 0.033
14,EIF3A (UniProt Q14152),1.19 ± 0.12
15,SNX1 (UniProt Q13596),1.02 ± 0.034
16,IQGAP2 (UniProt Q13576),0.944 ± 0.029
17,EP300 (UniProt Q09472),1 ± 0.022
18,UniProt Q13362-2|Q13362-3|Q13362-4,0.976 ± 0.036

row,Target,NP40-soluble protein abundance
1,IK (UniProt Q13123),1.14 ± 0.026
2,UniProt Q15006,0.989 ± 0.049
3,SMC1A (UniProt Q14683),1.03 ± 0.052
4,UniProt Q13131 and related entries,1.01 ± 0.027
5,UniProt Q13191 and related entries,1.02 ± 0.031
6,LAPTM5 (UniProt Q13571),0.977 ± 0.012
7,UniProt Q13472 and related entries,1.01 ± 0.036
8,EIF4EBP2 (UniProt Q13542),1.07 ± 0.056
9,TMED1 (UniProt Q13445),0.949 ± 0.028
10,ITPR2 (UniProt Q14571),0.931 ± 0.093
11,UniProt Q13535 and related entries,0.97 ± 0.018
12,UniProt Q15084 and related entries,0.951 ± 0.032
13,LCP2 (UniProt Q13094),0.98 ± 0.0097
14,DNAJC3 (UniProt Q13217),1.01 ± 0.014
15,BLMH (UniProt Q13867),0.933 ± 0.041
16,UniProt Q13243,1.19 ± 0.013
17,UniProt Q15046,0.918 ± 0.13
18,UniProt Q10589 and related entries,1.03 ± 0.028

# Same assay, conditions: concentration: 8mM
row,Target,NP40-soluble protein abundance
1,UniProt Q15025 and related entries,0.922 ± 0.021
2,UniProt Q12769 and related entries,0.99281 ± 0.00096
3,EIF2B5 (UniProt Q13144),1.01 ± 0.031
4,UniProt Q14790 and related entries,0.986 ± 0.027
5,COTL1 (UniProt Q14019),0.965 ± 0.026
6,UniProt Q12933 and related entries,0.944 ± 0.02
7,URB2 (UniProt Q14146),1.07 ± 0.023
8,AHNAK (UniProt Q09666),0.947 ± 0.012
9,UniProt Q12974 and related entries,1.02 ± 0.029
10,PMPCA (UniProt Q10713),0.98 ± 0.022
11,UniProt Q14980 and related entries,0.875 ± 0.039
12,UniProt Q14CB8 and related entries,0.996 ± 0.027
13,RAB33A (UniProt Q14088),1 ± 0.042
14,EIF3A (UniProt Q14152),1.25 ± 0.12
15,SNX1 (UniProt Q13596),1.02 ± 0.028
16,IQGAP2 (UniProt Q13576),0.926 ± 0.039
17,EP300 (UniProt Q09472),1 ± 0.02
18,UniProt Q13362-2|Q13362-3|Q13362-4,0.948 ± 0.018

row,Target,NP40-soluble protein abundance
1,IK (UniProt Q13123),1.156 ± 0.0063
2,UniProt Q15006,1.02 ± 0.028
3,SMC1A (UniProt Q14683),1 ± 0.035
4,UniProt Q13131 and related entries,1.05 ± 0.022
5,UniProt Q13191 and related entries,0.98 ± 0.023
6,LAPTM5 (UniProt Q13571),0.969 ± 0.03
7,UniProt Q13472 and related entries,0.999 ± 0.019
8,EIF4EBP2 (UniProt Q13542),1.05 ± 0.018
9,TMED1 (UniProt Q13445),0.968 ± 0.024
10,ITPR2 (UniProt Q14571),0.954 ± 0.12
11,UniProt Q13535 and related entries,0.962 ± 0.039
12,UniProt Q15084 and related entries,0.92 ± 0.022
13,LCP2 (UniProt Q13094),0.955 ± 0.042
14,DNAJC3 (UniProt Q13217),0.985 ± 0.021
15,BLMH (UniProt Q13867),0.978 ± 0.069
16,UniProt Q13243,1.208 ± 0.0093
17,UniProt Q15046,0.898 ± 0.097
18,UniProt Q10589 and related entries,1.05 ± 0.056
